# According to article PMC2477742:
# No constants are given. Whether binding was seen depends on the method and setting.
# T1: IL-11 receptor alpha chain on beta-TC3 cells (no gp-130) (mouse (endogenous in beta-TC3)) (UniProt Q64385)
# T1 sequence: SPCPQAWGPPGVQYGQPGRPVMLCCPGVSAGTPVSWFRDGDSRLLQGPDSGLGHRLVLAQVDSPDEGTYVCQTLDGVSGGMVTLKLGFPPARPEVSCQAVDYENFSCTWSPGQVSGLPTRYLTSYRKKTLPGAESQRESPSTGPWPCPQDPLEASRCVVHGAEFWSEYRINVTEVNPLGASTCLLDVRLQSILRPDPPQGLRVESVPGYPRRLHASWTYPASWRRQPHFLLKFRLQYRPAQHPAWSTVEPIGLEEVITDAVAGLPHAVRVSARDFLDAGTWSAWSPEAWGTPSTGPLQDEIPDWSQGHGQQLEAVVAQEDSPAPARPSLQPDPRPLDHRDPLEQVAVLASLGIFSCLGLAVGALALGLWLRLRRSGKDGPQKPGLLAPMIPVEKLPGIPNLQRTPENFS
# Biological target: T1, IL-11 receptor alpha chain on beta-TC3 cells (no gp-130) (mouse (endogenous in beta-TC3))
# Experiment: radioligand binding; 10^6 cells in 40 ul RPMI-1640 or DME medium with 20 mM Hepes pH 7.4 and 10% FCS, overnight on ice with 1 x 10^5 cpm 125I-labelled IL-11 with or without a 100-fold excess of unlabelled IL-11; cell-associated and free ligand separated by centrifugation through FCS; only the binder purified
binder,measurement,value
"125I-labelled IL-11 (ligand, UniProt P47873 22-199, 125I-labelled (radioiodinated)) PGPPAGSPRVSSDPRADLDSAVLLTRSLLADTRQLAAQMRDKFPADGDHSLDSLPTLAMSAGTLGSLQLPGVLTRLRVDLMSYLRHVQWLRRAGGPSLKTLEPELGALQARLERLLRRLQLLMSRLALPQAAPDQPVIPLGPPASAWGSIRAAHAILGGLHLTLDWAVRGLLLLKTRL",binding,no binding (tested: 1 x 105 cpm 125I-labelled IL-11)
